Some entries share one result that the patent states for a list of compounds. [BNANC] = BNA^NC bridged nucleic acid sugar; d = 2'-deoxy (DNA)
Columns and labels:
[1] = test system: ApoB; test: ApoB gene silencing (qPCR) in Huh7 cells; format: cell-based, human
Method: (§1) ApoB gene silencing in HepG2 (ASGPR1*) cells or Huh7 (ASPGR1^+/−) was determined. […] Thus, a conjugate comprising a labile bond between any two molecules forming the conjugate or comprised by the conjugate, will be cleaved at a position in the labile linker, therewith dissociating the two linked or bound molecules. An example is the cleavage of a hydrazone bond under acidic conditions as apparent in the endosome and lysosome of mammalian cells such as human cells.
(§2) ApoB gene silencing HepG2 (ASGPR1*) cells and Huh7 (ASPGR1^+/−) cells was determined.
(§3) RNA from cells was isolated and analysed according to standard protocols (Biorad). qPCR primers that were used are indicated in Table A2.

[2] = test system: ApoB; test: ApoB gene silencing (qPCR) in HepG2 cells; format: cell-based, human
Method: as §1, §2, §3

[3] = test system: HepG2 cells; test: General toxicity / cell viability assay (MTS) on HepG2; conditions: single compound, absence of CD71-saporin, FIG. 9
[4] = test system: Huh7 cells; test: General toxicity / cell viability assay (MTS) on Huh7; conditions: single compound, absence of CD71-saporin, FIG. 9
[5] = test system: HSP27; test: HSP27 gene silencing (qPCR) in HepG2 cells; format: cell-based, human; conditions: conjugate alone
Method: (§4) HSP27 gene silencing in HepG2 and Huh7 cells was determined.
as §3

[6] = test system: HSP27; test: HSP27 gene silencing (qPCR) in Huh7 cells; format: cell-based, human; conditions: conjugate alone
Method: as §4, §3

[7] = + 4000 nM trivalent-GalNAc-L-SO1861

trivalent-GalNAc-L-ApoBBNA: ApoBBNA (SEQ ID NO: 2) conjugated to trivalent-GalNAc, labile conjugation, FIG. 6 (antisense GCCTCAGTCTGCTTCGCACC; BNA oligo, pattern not given here, trivalent GalNAc via labile linker, position not given here)
IC50 ([1]; conjugate alone, Example 3): > 1000 nM
IC50 ([2]; conjugate alone, Example 2): > 2000 nM
IC50 ([2]; conjugate alone, Example 3): > 1000 nM

CC(=O)NC1C(OCCCCC(=O)NCCCNC(=O)CCOCC(COCCC(=O)NCCCNC(=O)CCCCOC2OC(CO)C(O)C(O)C2NC(C)=O)(COCCC(=O)NCCCNC(=O)CCCCOC2OC(CO)C(O)C(O)C2NC(C)=O)NC(=O)CCCCCCCCCCC(=O)NCCCN=[N+]=[N-])OC(CO)C(O)C1O (stereo not shown) [trivalent-GalNAc]
not toxic up to (cell viability, MTS) [3]: ≥ 15 µM
not toxic up to (cell viability, MTS) [4]: ≥ 15 µM

trivalent-GalNAc-S-ApoBBNA: ApoBBNA (SEQ ID NO: 2) conjugated to trivalent-GalNAc, stable conjugation, FIG. 7 (antisense GCCTCAGTCTGCTTCGCACC; sugars from the 5' end [BNANC]5 d10 [BNANC]5, all phosphorothioate, methylation of C not given here; further chemistry not fully specified)
IC50 ([1]; conjugate alone, Example 3): > 1000 nM
IC50 ([2]; conjugate alone, Example 2): > 2000 nM
IC50 ([2]; conjugate alone, Example 3): > 1000 nM

trivalent-GalNAc-L-HSP27BNA: HSP27BNA (SEQ ID NO: 1) conjugated to trivalent-GalNAc, labile conjugation, FIG. 6 (antisense GGCACAGCCAGTGGCG; sugars from the 5' end [BNANC]3 d10 [BNANC]3, all phosphorothioate, methylation of C not given here; further chemistry not fully specified)
IC50 [5]: > 2000 nM
IC50 [6]: > 2000 nM

trivalent-GalNAc-S-HSP27BNA: HSP27BNA (SEQ ID NO: 1) conjugated to trivalent-GalNAc, stable conjugation, FIG. 7 (GGCACAGCCAGTGGCG; sugars from the 5' end [BNANC]3 d10 [BNANC]3, all phosphorothioate, methylation of C not given here; further chemistry not fully specified)
IC50 [5]: > 2000 nM
IC50 [6]: > 2000 nM

trivalent-GalNAc-S-ApoBscrambiedBNA: stable trivalent GalNAc conjugate of scrambled ApoBBNA (SEQ ID NO: 3); off-target control (GGCCTCTCTACACCGCTCGT; sugars from the 5' end [BNANC]5 d10 [BNANC]5, all phosphorothioate, methylation of C not given here; further chemistry not fully specified)
IC50 [1, 7]: > 1000 nM
IC50 [2, 7]: > 1000 nM

trivalent-GalNAc-L-ApoBscrambledBNA: labile trivalent GalNAc conjugate of scrambled ApoBBNA (SEQ ID NO: 3); off-target control (antisense GGCCTCTCTACACCGCTCGT; sugars from the 5' end [BNANC]5 d10 [BNANC]5, all phosphorothioate, methylation of C not given here; further chemistry not fully specified)
IC50 [1, 7]: > 1000 nM
IC50 [2, 7]: > 1000 nM
